{"source": "patent US4686283A", "about": "“Analogs of transforming and epidermal growth factor fragments for therapy and diagnosis” (Syntex (U.S.A.) Inc., priority 1985, dated 1987)", "key": {"LE II cells [1]": {"tested_on": "LE II cells", "assay": "Inhibition of EGF-induced cell proliferation ([3H]-methylthymidine incorporation)", "assay_type": "cell-based, Murine", "conditions": "induced by 2 × 10^-9 M EGF; for % Enhancement of thymidine incorporation: control 380 ± 20", "procedure": "(§1) LE II cells were grown to confluence in 48 well cluster dishes and starved for two days in DMEM containing 0.5% fetal calf serum.\n(§2) The percent enhancement of thymidine incorporation was used as the measure of cell proliferation. The lower the percentage of thymidine incorporation, the lower the rate of cell proliferation. Inhibition of EGF-induced cell proliferation by the foregoing compounds is reflected in Table II. Table III gives the inhibition of TGFα-induced cell proliferation."}, "LE II cells [2]": {"tested_on": "LE II cells", "assay": "Inhibition of TGFα-induced cell proliferation ([3H]-methylthymidine incorporation)", "assay_type": "cell-based, Murine", "conditions": "induced by 2 × 10^-9 M TGFα; for % of thymidine incorporation: control 420 ± 30", "procedure": "as §1, §2"}}, "note": "Not every detail of the peptide structures is certain; ends, links or a residue may be inferred. Where a SMILES comes first, the peptide text is derived from it. Bridges are numbered along the chain shown (N, C = ends). [ ]: non-standard residue; d: D form. d(hArg(Et2)) = CCN=C(NCC)NCCCC[C@@H](N)C(=O)O; hArg(Et2) = CCN=C(NCC)NCCCC[C@H](N)C(=O)O"}
{"smiles": "COC(=O)[C@@H]1CSSC[C@H](NC(C)=O)C(=O)N[C@@H](Cc2c[nH]cn2)C(=O)N[C@@H](CO)C(=O)NCC(=O)N[C@@H](Cc2ccc(O)cc2)C(=O)N[C@@H](C(C)C)C(=O)NCC(=O)N[C@@H](C(C)C)C(=O)N[C@@H](CCCNC(=N)N)C(=O)N1", "note": "[Peptide 4] (Ac-CHSGYVGVRC-OMe; disulfide 1-10)", "values": [{"measurement": "% Enhancement of thymidine incorporation, second figure relative to control = 100 (ratio of TGF α fragment/EGF counts per minute)", "setting": "LE II cells [1]; peptide 10^-5 M", "value": 11, "unit": "%"}, {"measurement": "% Enhancement of thymidine incorporation", "setting": "LE II cells [1]; peptide 10^-5 M", "value": "40 ± 10", "unit": "%"}, {"measurement": "% Enhancement of thymidine incorporation, second figure relative to control = 100 (ratio of TGF α fragment/EGF counts per minute)", "setting": "LE II cells [1]; peptide 10^-6 M", "value": 29, "unit": "%"}, {"measurement": "% Enhancement of thymidine incorporation", "setting": "LE II cells [1]; peptide 10^-6 M", "value": "110 ± 20", "unit": "%"}, {"measurement": "% Enhancement of thymidine incorporation, second figure relative to control = 100 (ratio of TGF α fragment/EGF counts per minute)", "setting": "LE II cells [1]; peptide 10^-7 M", "value": 58, "unit": "%"}, {"measurement": "% Enhancement of thymidine incorporation", "setting": "LE II cells [1]; peptide 10^-7 M", "value": "220 ± 40", "unit": "%"}]}
{"smiles": "CCN=C(NCC)NCCCC[C@H](N)C(=O)NCC(=O)NCC(=O)N[C@H]1CSSC[C@@H](C(=O)O)NC(=O)[C@H](CCCNC(=N)N)NC(=O)[C@H](C(C)C)NC(=O)CNC(=O)[C@H](C(C)C)NC(=O)[C@H](Cc2ccc(O)cc2)NC(=O)CNC(=O)[C@H](CO)NC(=O)[C@H](Cc2c[nH]cn2)NC1=O", "note": "[Peptide 5] (H-[hArg(Et2)]GGCHSGYVGVRC-OH; disulfide 4-13)", "values": [{"measurement": "% Enhancement of thymidine incorporation, second figure relative to control = 100 (ratio of TGF α fragment/EGF counts per minute)", "setting": "LE II cells [1]; peptide 10^-5 M", "value": 18, "unit": "%"}, {"measurement": "% Enhancement of thymidine incorporation", "setting": "LE II cells [1]; peptide 10^-5 M", "value": "70 ± 10", "unit": "%"}, {"measurement": "% Enhancement of thymidine incorporation, second figure relative to control = 100 (ratio of TGF α fragment/EGF counts per minute)", "setting": "LE II cells [1]; peptide 10^-6 M", "value": 26, "unit": "%"}, {"measurement": "% Enhancement of thymidine incorporation", "setting": "LE II cells [1]; peptide 10^-6 M", "value": "100 ± 20", "unit": "%"}, {"measurement": "% Enhancement of thymidine incorporation, second figure relative to control = 100 (ratio of TGF α fragment/EGF counts per minute)", "setting": "LE II cells [1]; peptide 10^-7 M", "value": 50, "unit": "%"}, {"measurement": "% Enhancement of thymidine incorporation", "setting": "LE II cells [1]; peptide 10^-7 M", "value": "190 ± 20", "unit": "%"}]}
{"smiles": "CCN=C(NCC)NCCCC[C@@H](N)C(=O)NCC(=O)NCC(=O)N[C@H]1CSSC[C@@H](C(=O)O)NC(=O)[C@H](CCCNC(=N)N)NC(=O)[C@H](C(C)C)NC(=O)CNC(=O)[C@H](C(C)C)NC(=O)[C@H](Cc2ccc(O)cc2)NC(=O)CNC(=O)[C@H](CO)NC(=O)[C@H](Cc2c[nH]cn2)NC1=O", "note": "[Peptide 6] (H-[d(hArg(Et2))]GGCHSGYVGVRC-OH; disulfide 4-13)", "values": [{"measurement": "% Enhancement of thymidine incorporation, second figure relative to control = 100 (ratio of TGF α fragment/EGF counts per minute)", "setting": "LE II cells [1]; peptide 10^-5 M", "value": 16, "unit": "%"}, {"measurement": "% Enhancement of thymidine incorporation", "setting": "LE II cells [1]; peptide 10^-5 M", "value": "60 ± 10", "unit": "%"}, {"measurement": "% Enhancement of thymidine incorporation, second figure relative to control = 100 (ratio of TGF α fragment/EGF counts per minute)", "setting": "LE II cells [1]; peptide 10^-6 M", "value": 24, "unit": "%"}, {"measurement": "% Enhancement of thymidine incorporation", "setting": "LE II cells [1]; peptide 10^-6 M", "value": "90 ± 15", "unit": "%"}, {"measurement": "% Enhancement of thymidine incorporation, second figure relative to control = 100 (ratio of TGF α fragment/EGF counts per minute)", "setting": "LE II cells [1]; peptide 10^-7 M", "value": 54, "unit": "%"}, {"measurement": "% Enhancement of thymidine incorporation", "setting": "LE II cells [1]; peptide 10^-7 M", "value": "205 ± 15", "unit": "%"}, {"measurement": "% of thymidine incorporation, second figure relative to control = 100", "setting": "LE II cells [2]; peptide 10^-5 M", "value": 25, "unit": "%"}, {"measurement": "% of thymidine incorporation", "setting": "LE II cells [2]; peptide 10^-5 M", "value": "105 ± 15", "unit": "%"}, {"measurement": "% of thymidine incorporation, second figure relative to control = 100", "setting": "LE II cells [2]; peptide 10^-6 M", "value": 43, "unit": "%"}, {"measurement": "% of thymidine incorporation", "setting": "LE II cells [2]; peptide 10^-6 M", "value": "180 ± 20", "unit": "%"}, {"measurement": "% of thymidine incorporation, second figure relative to control = 100", "setting": "LE II cells [2]; peptide 10^-7 M", "value": 57, "unit": "%"}, {"measurement": "% of thymidine incorporation", "setting": "LE II cells [2]; peptide 10^-7 M", "value": "240 ± 30", "unit": "%"}]}
{"smiles": "CCNC(=O)[C@@H]1CSSC[C@H](NC(C)=O)C(=O)N[C@@H](Cc2c[nH]cn2)C(=O)N[C@@H](CO)C(=O)NCC(=O)N[C@@H](Cc2ccc(O)cc2)C(=O)N[C@@H](C(C)C)C(=O)NCC(=O)N[C@@H](C(C)C)C(=O)N[C@@H](CCCNC(=N)N)C(=O)N1", "note": "[Peptide 7] (Ac-CHSGYVGVRC-NHEt; disulfide 1-10)", "values": [{"measurement": "% Enhancement of thymidine incorporation, second figure relative to control = 100 (ratio of TGF α fragment/EGF counts per minute)", "setting": "LE II cells [1]; peptide 10^-5 M", "value": 21, "unit": "%"}, {"measurement": "% Enhancement of thymidine incorporation", "setting": "LE II cells [1]; peptide 10^-5 M", "value": "80 ± 20", "unit": "%"}, {"measurement": "% Enhancement of thymidine incorporation, second figure relative to control = 100 (ratio of TGF α fragment/EGF counts per minute)", "setting": "LE II cells [1]; peptide 10^-6 M", "value": 29, "unit": "%"}, {"measurement": "% Enhancement of thymidine incorporation", "setting": "LE II cells [1]; peptide 10^-6 M", "value": "110 ± 25", "unit": "%"}, {"measurement": "% Enhancement of thymidine incorporation, second figure relative to control = 100 (ratio of TGF α fragment/EGF counts per minute)", "setting": "LE II cells [1]; peptide 10^-7 M", "value": 63, "unit": "%"}, {"measurement": "% Enhancement of thymidine incorporation", "setting": "LE II cells [1]; peptide 10^-7 M", "value": "240 ± 20", "unit": "%"}]}
